No constants are given. Whether binding was seen depends on the method and setting. Binding seen in cells or lysates may run through a third protein. Some binding calls cover weakened binding; strength is not graded here. For some of these results: Where a sequence is shown, tags or fusion partners need not be part of it.

Chains of the proteins cited; added tags and fusions are not shown.
UniProt Q5AP95: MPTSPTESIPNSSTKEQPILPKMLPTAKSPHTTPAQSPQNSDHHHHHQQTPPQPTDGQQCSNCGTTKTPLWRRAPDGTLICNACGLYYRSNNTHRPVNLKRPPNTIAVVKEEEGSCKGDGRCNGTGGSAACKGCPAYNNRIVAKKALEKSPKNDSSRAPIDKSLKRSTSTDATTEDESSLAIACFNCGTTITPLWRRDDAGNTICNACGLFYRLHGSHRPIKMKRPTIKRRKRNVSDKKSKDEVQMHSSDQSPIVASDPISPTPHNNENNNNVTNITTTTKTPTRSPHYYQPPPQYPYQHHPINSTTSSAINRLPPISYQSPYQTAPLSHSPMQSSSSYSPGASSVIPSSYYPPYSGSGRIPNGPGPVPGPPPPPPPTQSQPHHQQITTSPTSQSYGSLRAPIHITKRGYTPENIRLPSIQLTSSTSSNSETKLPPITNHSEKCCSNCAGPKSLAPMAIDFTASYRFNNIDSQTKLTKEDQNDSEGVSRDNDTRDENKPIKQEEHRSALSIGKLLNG
UniProt Q59UY7: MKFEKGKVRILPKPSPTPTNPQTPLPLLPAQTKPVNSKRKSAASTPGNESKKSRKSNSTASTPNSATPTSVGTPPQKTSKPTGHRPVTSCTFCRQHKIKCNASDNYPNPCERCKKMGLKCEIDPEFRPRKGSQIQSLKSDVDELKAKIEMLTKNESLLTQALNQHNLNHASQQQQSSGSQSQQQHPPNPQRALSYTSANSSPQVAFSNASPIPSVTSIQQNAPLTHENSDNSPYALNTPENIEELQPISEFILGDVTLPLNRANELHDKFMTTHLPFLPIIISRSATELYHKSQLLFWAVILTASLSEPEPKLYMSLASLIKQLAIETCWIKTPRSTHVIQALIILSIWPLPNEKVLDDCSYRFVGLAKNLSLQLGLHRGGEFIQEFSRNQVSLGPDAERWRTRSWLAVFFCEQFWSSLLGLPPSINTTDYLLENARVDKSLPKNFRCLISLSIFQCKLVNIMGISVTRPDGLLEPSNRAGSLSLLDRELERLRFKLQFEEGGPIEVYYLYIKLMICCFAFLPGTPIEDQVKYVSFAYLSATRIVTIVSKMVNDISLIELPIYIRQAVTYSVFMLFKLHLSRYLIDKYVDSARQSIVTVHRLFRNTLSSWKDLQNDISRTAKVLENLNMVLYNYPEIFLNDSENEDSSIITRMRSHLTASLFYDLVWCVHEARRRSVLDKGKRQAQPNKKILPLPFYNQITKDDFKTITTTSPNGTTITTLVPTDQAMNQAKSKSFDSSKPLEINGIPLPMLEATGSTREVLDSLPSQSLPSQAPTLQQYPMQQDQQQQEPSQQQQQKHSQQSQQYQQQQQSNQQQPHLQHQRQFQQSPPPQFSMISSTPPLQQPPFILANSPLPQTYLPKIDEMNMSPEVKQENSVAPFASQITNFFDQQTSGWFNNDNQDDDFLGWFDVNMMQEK

Common to all, as to assay: co-IP; IgG-sepharose precipitates the TAP-tagged protein from nondenaturing whole cell extracts of doubly tagged C. albicans grown iron-replete (YPD) or iron-depleted (YPD with DIP); 3 mg protein, 24 h at 4°C; lysis buffer 20 mM Tris pH 7.4, 100 mM KCl, 5 mM MgCl2, 20% glycerol; TEV eluate; immunoblot with anti-Myc
(Immunoblotting shows a protein as a band on a membrane.)

Assay [1] addresses T1, Ssn3-TAP (C. albicans) (UniProt Q5AHK2).
T1 sequence: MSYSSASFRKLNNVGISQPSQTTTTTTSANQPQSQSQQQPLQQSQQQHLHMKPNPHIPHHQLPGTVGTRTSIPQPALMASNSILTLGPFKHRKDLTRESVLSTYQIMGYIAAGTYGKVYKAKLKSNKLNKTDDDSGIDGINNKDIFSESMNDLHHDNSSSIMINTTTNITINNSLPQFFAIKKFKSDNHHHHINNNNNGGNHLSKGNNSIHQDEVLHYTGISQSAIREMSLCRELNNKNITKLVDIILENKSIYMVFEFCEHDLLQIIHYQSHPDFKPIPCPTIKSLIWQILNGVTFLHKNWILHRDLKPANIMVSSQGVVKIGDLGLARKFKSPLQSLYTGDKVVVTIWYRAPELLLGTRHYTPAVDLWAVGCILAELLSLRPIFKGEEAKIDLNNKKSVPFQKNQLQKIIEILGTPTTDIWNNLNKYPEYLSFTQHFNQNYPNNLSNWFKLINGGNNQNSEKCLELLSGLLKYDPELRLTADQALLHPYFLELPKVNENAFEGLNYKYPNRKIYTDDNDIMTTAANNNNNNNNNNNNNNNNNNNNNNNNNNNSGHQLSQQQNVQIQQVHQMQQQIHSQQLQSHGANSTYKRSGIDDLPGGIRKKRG

In assay [2] the target is Sfu1-TAP (C. albicans) (UniProt Q5AP95).
For assay [3], the target named is Sef1-TAP (C. albicans) (UniProt Q59UY7).

As for Sef1-Myc (from UniProt Q59UY7 1-917), the binding result in assay [1] and in assay [2] was “binds” throughout. Regarding Sfu1-Myc (from UniProt Q5AP95 1-517), the binding entry in assay [3] is “binds”.

B1: Ssn3-Myc (protein, UniProt Q5AHK2 1-608)
chain: T1 sequence
Turning to B1, the binding result in assay [3] is listed as “binds”.

These data come from paper PMC3486892.
